# In all, about 300,000 compounds went through this assay and about 3,700 (1.2%) were called active. Inconclusive means that the source gave no clear call. Such entries were picked first, then a sample of the others. The call rests on the fitted dose curve; tested in HEK293 cells. Potencies beside an inconclusive call are fits to weak or partial responses and may not hold up.
# Experiment: qHTS for Inhibitors of binding or entry into cells for Lassa Virus; further: nearly all actives have a fitted effect of over 50% in size
# Settings: Lassa virus pseudotype entry inhibition, cell reporter; series mostly up to 37.9 µM
# Potency means the concentration at half of the fitted maximal effect.
row,SMILES,Potency
1,COc1ccc(C2=C(C)C(=NCCCN3CCN(c4cc(Cl)ccc4C)CC3)NS2(=O)=O)cc1,inactive
2,COc1cc2[nH]c(C(=O)N3CCN(c4ccc(F)cc4)CC3)cc2c(OC)c1OC,"inconclusive: 20 µM [inhibitor, single point]"
3,Cc1ccc(NC(=O)Cn2cc(S(=O)(=O)Cc3cccc(Cl)c3)c3ccccc32)cc1C,"inconclusive: 14.1 µM [activator, single point]"
4,O=c1c(Cl)c(N2CCN(c3ccc(F)cc3)CC2)cnn1C12CC3CC(CC(C3)C1)C2,inactive
5,O=S(=O)(N/N=C\c1cccnc1)c1ccccc1,inactive
6,Cc1ccn2c(Nc3ccccc3)c(-c3ccccn3)nc2c1,active: 5.8 µM
7,c1ccc(CNc2ncnc3c2cnn3Cc2ccccc2)cc1,"inconclusive: 10.3 µM [inhibitor, partial curve, poor fit]"
8,O=C(COc1ccc2ccccc2c1)N1CCN(C(=O)c2cccs2)CC1,"inconclusive: 11.2 µM [inhibitor, single point]"
9,COC(=O)CCCCCCCCCC[N+]1(C)CCCCC1,inactive
10,NC(=NCc1ccc2c(c1)OCO2)NC(=O)c1ccccc1,inactive
11,COc1ccc(C)cc1NC(=O)CCNC(=O)Cn1ccc2ccccc2c1=O,"inconclusive: 3.16 µM [activator, partial curve, poor fit]"
12,CCOc1cc(/C=C2/NC(=O)N(CC(=O)Nc3cccc(C)c3)C2=O)ccc1O,"inconclusive: 0.178 µM [inhibitor, full curve, poor fit]"
13,CCn1cc(-c2csc(N)n2)c(C)n1,inactive
14,CCOC(=O)c1c(C)[nH]c(C(=O)OCC(=O)Nc2ccc(OC)c(Cl)c2)c1C,"inconclusive: 0.82 µM [inhibitor, full curve, poor fit]"
15,c1ccc(CNc2nc(-c3cccnc3)cs2)cc1,inactive
16,Cn1c(SCC(=O)N(C2CCCCC2)C2CCCCC2)nnc1-c1cccs1,"inconclusive: 32.6 µM [inhibitor, single point]"
17,COc1ccc(CCNC(=O)CSc2cccc3cccnc23)cc1OC,inactive
18,CN(CCNC(=O)C1CCN(c2ncnc3c2nc2n3CCCCC2)CC1)Cc1ccccc1,"inconclusive: 8.91 µM [inhibitor, partial curve, poor fit]"
19,NC(=O)c1nsc(C(=O)N(Cc2cccnc2)C(C(=O)NCc2ccccc2)c2ccc(O)cc2)c1N (stereo not drawn),"inconclusive: 6.31 µM [activator, single point]"
20,Nc1nccc(-c2c(-c3ccc(F)cc3)ncn2C2CCNCC2)n1,"inconclusive: 0.0089 µM [activator, full curve, poor fit]"
21,CCC1(C)Cc2c(sc3nc(SC)[nH]c(=O)c23)CO1 (stereo not drawn),inactive
22,CCN1CCN(Cc2cccc(Oc3ccccc3)c2)CC1,"inconclusive: 18.3 µM [inhibitor, single point]"
23,Cc1ccccc1NS(=O)(=O)c1ccc2[nH]cc(C(=O)NC3CCCCC3)c(=O)c2c1,"inconclusive: 17.8 µM [inhibitor, single point]"
24,CC(C)Sc1cc(N2CCCC2)nc(-c2ccccc2Cl)n1,inactive
25,N#Cc1c(-c2ccncc2)cc(-c2ccc(F)cc2)nc1N,"inconclusive: 7.08 µM [inhibitor, full curve]"

row,SMILES,Potency
1,COc1ccc(S(=O)(=O)N2CCCC(C(=O)NC3CCCC3)C2)cc1OC (stereo not drawn),"inconclusive: 35.5 µM [inhibitor, single point]"
2,Cc1cc(C)nc(NC(=O)CSc2nc3ccccc3s2)n1,"inconclusive: 32.6 µM [inhibitor, single point]"
3,CCOC(=O)N1CCC(NC(=O)Cn2ncc3c4ccccc4n(C)c3c2=O)CC1,inactive
4,O=C(N/N=C/c1ccccc1[N+](=O)[O-])c1ccc2c(c1)OCCO2,active: 1.41 µM
5,CCOc1ccc2nc(NC(=O)c3cccnc3)sc2c1,"inconclusive: 11.2 µM [inhibitor, single point]"
6,Cc1ccc(S(=O)(=O)NCCC(=O)OCC(=O)N2CCCC2=O)cc1C,"inconclusive: 0.794 µM [inhibitor, single point]"
7,COc1cccc(CNC(=O)CCCn2nc(C)c3sc4ccccc4c3c2=O)c1,inactive
8,CCOc1ccc(-n2c(SCC(=O)Nc3cc(C)on3)nc3c([nH]c4ccccc43)c2=O)cc1,inactive
9,CCc1ccccc1N(C)C(=O)Cn1cnc2sc(C)c(S(=O)(=O)N3CCC(C)CC3)c2c1=O,"inconclusive: 5.62 µM [inhibitor, single point]"
10,COc1ccc(C(CNc2ccc(S(=O)(=O)N3CCN(C)CC3)cc2[N+](=O)[O-])N(C)C)cc1 (stereo not drawn),inactive
11,[O-]/[N+](=C\c1ccncc1)c1ccc(Br)cc1,inactive
12,CCOc1ccccc1NC(=O)CSc1nc(=O)n(CCN2CCOCC2)c2c1CCCC2,inactive
13,COc1ccc(-n2cnc3scc(-c4ccccc4)c3c2=O)cc1,"inconclusive: 35.5 µM [inhibitor, single point]"
14,CN1c2ccc([N+](=O)[O-])cc2CC2(C(=O)NC(=O)NC2=O)C1c1ccccc1 (stereo not drawn),"inconclusive: 22.4 µM [inhibitor, single point]"
15,O=C(CCCc1ccccc1)NCc1ccc(Cl)cc1,"inconclusive: 10 µM [activator, partial curve, poor fit]"
16,CNC(=S)N1N=C(c2ccc(Br)cc2)CC1c1ccc(N(C)C)cc1 (stereo not drawn),inactive
17,Cn1c(=O)c([N+](=O)[O-])c(N2CCSCC2)c2ccccc21,"inconclusive: 6.31 µM [inhibitor, single point]"
18,CCNc1nc(C)c2cc(Br)c(=O)n(CC)c2n1,"inconclusive: 0.0291 µM [inhibitor, full curve, poor fit]"
19,Cc1ccc(-n2ncc(C#N)c2/N=C/N2CCCCCC2)cc1,"inconclusive: 35.5 µM [inhibitor, single point]"
20,CCOC(=O)c1c(CN2CCOCC2)oc2ccc(OC(C)=O)cc12,"inconclusive: 0.282 µM [inhibitor, full curve, poor fit]"
21,COCCNc1nc(-c2ccc(OC)cc2)c(-c2ccc(OC)cc2)s1,inactive
22,Oc1c(Cl)cc(Cl)cc1/C=N/c1nccs1,inactive
23,Cc1cc(C)n(-c2ccc3cccc(NS(C)(=O)=O)c3n2)n1,"inconclusive: 2.59 µM [inhibitor, partial curve]"
24,COc1ccc(-n2c(C)nnc2SCc2nc(-c3ccc(OC)c(OC)c3)no2)cc1,"inconclusive: 7.08 µM [inhibitor, full curve, poor fit]"
25,O=C(Nc1cccc(S(=O)(=O)N2CCOCC2)c1)c1cn(-c2ccccc2)nc1-c1ccccc1,"inconclusive: 35.5 µM [inhibitor, single point]"

row,SMILES,Potency
1,COc1ccc(CC(=O)Nc2nc(-c3cccnc3)cs2)cc1,"inconclusive: 0.794 µM [inhibitor, full curve]"
2,Cc1ccc(NC(=O)c2c(NC(=O)c3ccc(F)cc3)sc3c2CCCC3)cc1C,inactive
3,CCOc1ccc2nc(SCc3ccc(OC)cc3)sc2c1,"inconclusive: 2.51 µM [inhibitor, full curve]"
4,CSCC[C@H](NC(=O)OC(C)(C)C)C(=O)N/N=C/c1cccc2cccnc12,"inconclusive: 35.5 µM [inhibitor, single point]"
5,CCc1cccc(C)c1NC(=O)C1CCN(S(=O)(=O)c2c(C)noc2/C=C/c2c(C)cc(C)cc2C)CC1,"inconclusive: 12.6 µM [activator, single point]"
6,CCOc1ccc(NC(=O)NCCN2CCN(c3cccc(C)c3C)CC2)cc1,inactive
7,CCOc1ccccc1NC(=O)CSc1nnnn1-c1ccc(C(=O)OC)cc1,inactive
8,FCCCOc1ccc(/C=N/OCc2ccc(Cl)cc2)cc1,"inconclusive: 17.8 µM [inhibitor, partial curve, poor fit]"
9,CCCOc1ccc([N+](=O)[O-])cc1C1NC(=S)NC(c2ccccc2)=C1C(=O)OCC (stereo not drawn),"inconclusive: 25.1 µM [inhibitor, single point]"
10,COc1ccc(C(=O)Nc2ccc(NC(=O)C3CC3)cn2)cc1,inactive
11,CCc1nnc(SC(CC)C(=O)Nc2ccc(OC)c(Cl)c2)c2cc3occc3n12 (stereo not drawn),inactive
12,Cc1ccc(S(=O)(=O)N2CCC[C@H]2C(=O)NC2CCCCC2)cc1,"inconclusive: 17.8 µM [inhibitor, partial curve, poor fit]"
13,CC1(C)Cc2nc3oc4c(=O)n(CC(=O)Nc5cccc(Cl)c5)cnc4c3cc2CO1,"inconclusive: 1.78 µM [inhibitor, single point]"
14,COc1ccc(Nc2nccc(-c3ccc(C#N)cc3)n2)cc1,inactive
15,Cc1ccc(Cl)cc1NC(=S)N(Cc1cccs1)C1CCCC1,"inconclusive: 10 µM [inhibitor, partial curve, poor fit]"
16,CC(=O)c1ccc(NC(=O)c2cn(-c3ccccc3)nc2-c2ccc(Br)cc2)cc1,inactive
17,CCOC(=O)c1cn(CC)c2cc(F)c(F)cc2c1=O,"inconclusive: 0.126 µM [inhibitor, full curve, poor fit]"
18,O=C(CCC1CCCC1)N1CCc2c([nH]c3ccccc23)C1c1ccc(F)cc1 (stereo not drawn),active: 5.01 µM
19,COc1cc(C)c(NC(=O)COc2ccc3c(c2)OCO3)cc1C,inactive
20,Cc1ccc(C(=O)N=c2sccn2C)cc1S(=O)(=O)N1CCOCC1,inactive
21,O=C(Cc1ccccc1)N(Cc1cccnc1)c1nc2c(Cl)cccc2s1,"inconclusive: 35.5 µM [inhibitor, single point]"
22,O=C(O)c1cc(-c2ccc(Cl)s2)[nH]n1,inactive
23,COc1ccc(OC)c(C2C(C(=O)Nc3nc4ccccc4s3)=C(C)NC3=C2C(=O)CCC3)c1 (stereo not drawn),"inconclusive: 35.5 µM [inhibitor, single point]"

# Retrieved by compound from the entries so far (5):
row,SMILES,Potency
21,O=C(Cc1ccccc1)N(Cc1cccnc1)c1nc2c(Cl)cccc2s1,"inconclusive: 35.5 µM [inhibitor, single point]"
6,CCOc1ccc(NC(=O)NCCN2CCN(c3cccc(C)c3C)CC2)cc1,inactive
10,COc1ccc(C(=O)Nc2ccc(NC(=O)C3CC3)cn2)cc1,inactive
19,COc1cc(C)c(NC(=O)COc2ccc3c(c2)OCO3)cc1C,inactive
9,CCCOc1ccc([N+](=O)[O-])cc1C1NC(=S)NC(c2ccccc2)=C1C(=O)OCC (stereo not drawn),"inconclusive: 25.1 µM [inhibitor, single point]"

# Source: PubChem BioAssay AID540256 (National Center for Advancing Translational Sciences (NCATS), 2011)
